Assay results taken from PubChem BioAssay AID651768 (National Center for Advancing Translational Sciences (NCATS), 2012).
Out of some 360,000 compounds screened, about 1,700 (0.47%) were called active. This list was built around the results that the source calls inconclusive (neither active nor inactive); the mix of calls is not that of the screen. The call rests on the fitted dose curve; in most records, active means well fitted inhibition curve with a large enough effect; inconclusive means small, poorly fitted or top-dose-only effect; inactive means no such curve, though single readings can be large or run the other way. A potency beside an inconclusive call is a rough fit, not a confirmed value.

Chains of the proteins cited; added tags and fusions are not shown.
UniProt Q14191, whole entry, looked up: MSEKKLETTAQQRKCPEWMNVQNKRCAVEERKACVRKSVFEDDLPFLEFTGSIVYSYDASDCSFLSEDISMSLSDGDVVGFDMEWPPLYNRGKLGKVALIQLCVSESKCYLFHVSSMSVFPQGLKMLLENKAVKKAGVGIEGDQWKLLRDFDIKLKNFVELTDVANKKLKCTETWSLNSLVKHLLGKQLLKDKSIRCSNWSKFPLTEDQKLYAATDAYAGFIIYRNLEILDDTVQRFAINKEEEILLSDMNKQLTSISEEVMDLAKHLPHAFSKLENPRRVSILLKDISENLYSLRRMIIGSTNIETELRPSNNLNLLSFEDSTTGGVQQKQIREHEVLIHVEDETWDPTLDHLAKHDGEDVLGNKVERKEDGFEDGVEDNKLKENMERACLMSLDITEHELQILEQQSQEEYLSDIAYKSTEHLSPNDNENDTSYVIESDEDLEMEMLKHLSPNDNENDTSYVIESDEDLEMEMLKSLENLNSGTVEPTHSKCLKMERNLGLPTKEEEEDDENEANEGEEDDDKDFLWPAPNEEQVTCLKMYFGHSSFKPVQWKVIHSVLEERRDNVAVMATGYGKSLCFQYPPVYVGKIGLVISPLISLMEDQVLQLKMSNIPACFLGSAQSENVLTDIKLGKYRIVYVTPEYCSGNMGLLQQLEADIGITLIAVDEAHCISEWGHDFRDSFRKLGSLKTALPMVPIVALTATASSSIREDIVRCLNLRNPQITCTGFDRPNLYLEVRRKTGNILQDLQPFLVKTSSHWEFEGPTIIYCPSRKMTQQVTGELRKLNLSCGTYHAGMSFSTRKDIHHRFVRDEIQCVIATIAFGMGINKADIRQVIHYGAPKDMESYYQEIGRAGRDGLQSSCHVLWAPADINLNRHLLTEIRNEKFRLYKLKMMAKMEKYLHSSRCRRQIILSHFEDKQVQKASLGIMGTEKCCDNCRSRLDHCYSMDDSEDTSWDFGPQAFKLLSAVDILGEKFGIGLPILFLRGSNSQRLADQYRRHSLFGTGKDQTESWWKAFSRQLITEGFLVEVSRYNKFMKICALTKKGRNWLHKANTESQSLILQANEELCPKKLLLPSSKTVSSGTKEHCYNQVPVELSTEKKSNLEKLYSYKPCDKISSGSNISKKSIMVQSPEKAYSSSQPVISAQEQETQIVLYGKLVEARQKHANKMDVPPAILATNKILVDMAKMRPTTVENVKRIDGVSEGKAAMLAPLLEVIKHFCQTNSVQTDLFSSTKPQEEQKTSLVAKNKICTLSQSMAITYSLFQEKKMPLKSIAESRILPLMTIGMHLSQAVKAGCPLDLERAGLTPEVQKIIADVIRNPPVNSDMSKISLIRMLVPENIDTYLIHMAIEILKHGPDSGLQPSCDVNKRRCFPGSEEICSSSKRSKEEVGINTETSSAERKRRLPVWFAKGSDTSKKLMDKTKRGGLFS

target: Bifunctional 3'-5' exonuclease/ATP-dependent helicase WRN (Homo sapiens) (UniProt Q14191); assay: qHTS for Inhibitors of WRN Helicase; settings: WRN helicase unwinding, fluorescent forked duplex, kinetic; activity change, negative = inhibition: at 114 µM (top of the series) unless noted; further: nearly all actives have a fitted effect of over 55% in size
Outline: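 Kinetic red-fluorescence monitoring (525/598 nm) tracks WRN helicase activity after 100 nM fluorophore-quencher forked duplex and 2 mM ATP are added to 20 nM enzyme pretreated 15 min at room temperature with compound.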
On the % scale 0 is the no-effect control and ±100 the full control effect; potency means the concentration at half of the fitted maximal effect.

SMILES	Potency	activity change, negative = inhibition
O=c1c2ccccc2sn1-c1cc(S(=O)(=O)N2CCOCC2)ccc1N1CCOCC1	inconclusive: 89.1 µM [inhibitor, single point]	
CC(C)NC(=O)NC(=O)COC(=O)c1cc[n+]([O-])cc1	inconclusive: 89.1 µM [inhibitor, single point]	
O=C(c1ccc(-c2cccc(Cl)c2Cl)o1)N1CCOCC1		inactive: -6.72%
O=C(CCCl)Nc1nnc(SCC(=O)NC2CCCC2)s1		inactive: -7.3%
COc1ccc(/C=C/C(=O)NC(=S)Nc2ccc(C(=O)O)cc2)cc1		inactive: -24.2%
COc1ccc(Cc2c(-c3ccco3)nc3ccc(Br)cn23)c(C)c1	inconclusive: 50.1 µM [inhibitor, partial curve]	
O=C(O)CN1C(=O)/C(=C\c2cc(Br)ccc2OCc2ccccc2Cl)SC1=S	active: 56.2 µM	
NC1=C(Cl)C(=O)c2ccc(S(N)(=O)=O)cc2C1=O	inconclusive: 31.6 µM [inhibitor, partial curve]	
NC(=O)CSc1nc2c(sc3ccccc32)c(=O)n1CCCC(=O)NCC1CCCO1 (configuration not stated)	inconclusive: 10 µM [inhibitor, partial curve]	
CCOC(=O)Cc1csc(NC(=O)Cn2cnc3c2c(=O)n(C)c(=O)n3C)n1		inactive: 7.32% [at 57.1 µM]
C/C(=N\Nc1nccnc1Cl)c1ccc(Cl)c(Cl)c1	inconclusive: 89.1 µM [inhibitor, single point]	
COc1ccc2[nH]c3c(C)c4ccncc4c(C)c3c2c1	inconclusive: 22.4 µM [inhibitor, partial curve]	
Nc1ccc2ccc(O)cc2c1		inconclusive: -37.1% [inhibitor]
Cc1c(Cl)cnc(NC(=O)COC(=O)c2ccc([N+](=O)[O-])s2)c1Cl	inconclusive: 50.1 µM [inhibitor, partial curve]	
CC(=O)n1nc(-c2ccc(Cl)cc2)nc1NCc1ccco1		inactive: -9.03%
Cc1cc(=O)n2ccsc2n1	inconclusive: 10 µM [inhibitor, partial curve]	
Cc1ccc(/C=N/NC(=O)c2nnn(-c3nonc3N)c2CNc2ccccc2)cc1		inactive: -1.53%
Cc1nc2ccccn2c1C(=O)N/N=C/c1ccc([N+](=O)[O-])o1	inconclusive: 56.2 µM [inhibitor, partial curve]	
COc1ccccc1C(C)NCC(=O)NC(=O)NCc1ccco1 (configuration not stated)		inactive: -4.57%
CCC(C)Sc1ccc(-c2nc3ccc(C)cn3c2NC2CCCCC2)cc1 (configuration not stated)		inactive: 2.79%
O=C(Nc1ccccc1)C1CCCN1/C=C/C(=O)C(F)(F)F (configuration not stated)	inconclusive: 39.8 µM [inhibitor, single point]	
N#C/C(=N/Nc1ccc(OC(F)(F)F)cc1)C(N)=S		inactive: -7.03%
COc1ccc(Nc2c3ccccc3nc3ccccc23)cc1	inconclusive: 11.2 µM [inhibitor, partial curve]	
O=C(O)Cc1cccc(=O)c(O)c1C(=O)O	inconclusive: 56.2 µM [inhibitor, partial curve]	

SMILES	Potency	activity change, negative = inhibition
CCN1CCN(C(=S)c2ccc(OC)cc2)CC1		inactive: -22.7%
COc1ccc(-c2csc(NC(=S)NC(=O)/C=C/c3ccc(C(C)C)cc3)n2)cc1OC	inconclusive: 17.8 µM [inhibitor, partial curve]	
O=C(Nc1cccc(Br)c1)c1ccc2nc(N3C(=O)CCC3=O)sc2c1	inconclusive: 50.1 µM [inhibitor, partial curve]	
CCc1nnc(NC(=O)CSc2nc(-c3ccccc3)cc(-c3ccc(F)cc3)c2C#N)s1		inactive: 8.96%
CCOc1cc(/C=C2\SC(=S)N(NC(=O)c3cccnc3)C2=O)ccc1O	active: 56.2 µM	
COc1ccc(C=NNc2ccc([N+](=O)[O-])cc2S(=O)(=O)Nc2ccccc2C(=O)O)cc1OC	inconclusive: 50.1 µM [inhibitor, partial curve]	
COC(=O)CCCC1=CC2=CC(=O)C(C)(OC(=O)C3CCCC3)C(=O)C2=CO1 (configuration not stated)	inconclusive: 50.1 µM [inhibitor, partial curve]	
CC(=O)c1nc(N2C(=O)C3CC=C(C)CC3C2=O)sc1C (configuration not stated)	inconclusive: 17.8 µM [inhibitor, partial curve]	
Cc1ccc2nc(-c3ccc(NC(=O)CSc4nccc(=O)[nH]4)cc3)sc2c1	inconclusive: 28.2 µM [inhibitor, single point]	
O=C(NCCCN1CCOCC1)c1ccc(NS(=O)(=O)c2cccc([N+](=O)[O-])c2)cc1	inconclusive: 79.4 µM [inhibitor, single point]	
O=C(c1ccc(Cl)c(S(=O)(=O)N2CCCCC2)c1)N1CCN(c2ccccc2)CC1	inconclusive: 89.1 µM [inhibitor, single point]	
CCOc1ccc(S(=O)(=O)N2CCC(C(=O)N3CCN(c4ccccc4F)CC3)CC2)cc1C	inconclusive: 89.1 µM [inhibitor, single point]	
Cc1cc(C(=O)Nc2ccc(Nc3ccccc3)cc2)ccc1[N+](=O)[O-]	inconclusive: 89.1 µM [inhibitor, single point]	
CC(C)(C)NS(=O)(=O)c1ccc2nc(NC(=O)c3ccc(N4C(=O)CCC4=O)cc3)sc2c1		inactive: -9.22%
O=S(N1CCc2ccccc21)C12CC3CC(CC(C3)C1)C2 (configuration not stated)	inconclusive: 89.1 µM [inhibitor, single point]	
O=C(O)CCc1ccc(-c2ccc(Cl)cc2)n1CCC(=O)O		inactive: -13.2%
N#CCC(=O)N1CCN(Cc2ccc3c(c2)OCO3)CC1		inactive: -3.48%
Cn1c(SCC(=O)N2CCOCC2)nc2c(c1=O)SCC2	inconclusive: 44.7 µM [inhibitor, partial curve]	
Cc1nc(CC(=O)NNS(=O)(=O)c2ccc3ccccc3c2)cs1		inactive: 1.47%
O=C(CCN1C(=O)/C(=C\C=C\c2ccccc2)SC1=S)Nc1ccccc1C(=O)O	inconclusive: 56.2 µM [inhibitor, partial curve]	
C/C(=N\NC(=O)c1ccc(Br)cc1)C1C(=O)c2ccccc2C1=O		inactive: -29.6%
C[C@@H]1CN([C@H](C)CO)C(=O)CCCn2nncc2CO[C@H]1CN(C)Cc1cccnc1		inactive: 3%
CS(=O)(=O)c1ccc(S(=O)CC(=O)OCc2ccccc2)c([N+](=O)[O-])c1 (configuration not stated)	inconclusive: 20 µM [inhibitor, full curve]	
Cn1c(/N=C/c2cccs2)nc2ccccc21		inactive: -7.2%

SMILES	Potency	activity change, negative = inhibition
C=CCn1c(C)cc(C(=O)Cn2ncc(Cl)c(Cl)c2=O)c1C	inconclusive: 89.1 µM [inhibitor, partial curve]	
O=C(C=C=Nc1ccccc1)C(=O)N=C=Cc1ccccc1	inconclusive: 56.2 µM [inhibitor, partial curve]	
COc1cc(-c2cc(C(=O)Nc3cccc(S(=O)(=O)N(C)C)c3)c3ccccc3n2)cc(OC)c1OC	inconclusive: 100 µM [inhibitor, single point]	
Nc1nc2ccccc2cc1C(=O)NCCCCc1ccccc1		inactive: -5.47%
C=CCNc1nc(C(=O)OCC(=O)c2cccc(Br)c2)cs1	inconclusive: 50.1 µM [inhibitor, partial curve]	
Cn1cccc1C(=O)C(=O)Nc1cc(Cl)cc(Cl)c1	inconclusive: 100 µM [inhibitor, single point]	
Nn1c(SCC(=O)Nc2cc(C(F)(F)F)ccc2Cl)nncc1=O	inconclusive: 44.7 µM [inhibitor, partial curve]	
CN(C)c1ccc(/C=C2/C[N+](C)(C)C/C(=C/c3ccc(N(C)C)cc3)C2=O)cc1	active: 20 µM	
O=C(NNC(=O)c1ccccc1Cl)c1cccs1		inactive: -0.0213%
N=C1/C(=C/c2ccc(-c3cccc(C(=O)O)c3)o2)C(=O)N=C2SC(CC(=O)N3CCOCC3)=NN12	active: 22.4 µM	
CS(=O)(=O)N(CC(=O)N1CCc2ccccc2C1)c1cccc([N+](=O)[O-])c1	inconclusive: 89.1 µM [inhibitor, single point]	
O=C(CCl)c1ccc2c(c1)CCN2C(=O)C1CCCCC1	inconclusive: 20 µM [inhibitor, partial curve]	
COc1ccc(OCC(=O)c2c(O)c3ccccc3oc2=O)cc1	inconclusive: 89.1 µM [inhibitor, single point]	
COc1ccc(OC)c(N2C(=O)[C@@H]3C(c4ccccc4Cl)=NO[C@@H]3C2=O)c1	active: 39.8 µM	
CCOc1ccccc1/C=c1\sc2nc(-c3ccco3)nn2c1=O	inconclusive: 39.8 µM [inhibitor, partial curve]	
Cc1ccccc1C(=O)Nc1ccnn1C1CCN(Cc2cnn(C)c2)CC1	inconclusive: 79.4 µM [inhibitor, single point]	
CCn1nc(C(=O)OCC(=O)NC(C)C)c2ccccc2c1=O		inactive: 4.74%
Cc1c(C#N)c(O)[nH]c(=O)c1N=Nc1ccc(S(N)(=O)=O)cc1	inconclusive: 28.2 µM [inhibitor, partial curve]	
COc1cccc(-n2nc(-c3ccnn3-c3ccc(C)cc3)c(=O)n(C)c2=O)c1		inconclusive: -39.1% [inhibitor] [at 57.1 µM]
COc1ccc(C)cc1NC(=O)NNC(=O)c1cc2ccccc2cc1O		inactive: -13.7%
CCCC(=O)NC1=C(Cl)C(=O)c2ccccc2C1=O	active: 25.1 µM	
Cc1nc(Nc2cnc(/C=C/c3cc(C(=O)Nc4cccc(C(F)(F)F)c4)ccc3C)cn2)cc(N2CCNCC2)n1	inconclusive: 50.1 µM [inhibitor, partial curve]	
O=c1cnn(-c2ccc(Cl)cc2Cl)c(-c2ccccc2)c1	inconclusive: 35.5 µM [inhibitor, full curve, poor fit]	
O=c1c2ccccc2nc(/C=C/c2cccnc2)n1CCc1ccccc1	inconclusive: 56.2 µM [inhibitor, partial curve]	

Taken from above.
activity change, negative = inhibition with `Nc1nc2ccccc2cc1C(=O)NCCCCc1ccccc1` reads inactive: -5.47%
Potency with `Nn1c(SCC(=O)Nc2cc(C(F)(F)F)ccc2Cl)nncc1=O` reads inconclusive: 44.7 µM [inhibitor, partial curve]
Potency with `C=CCNc1nc(C(=O)OCC(=O)c2cccc(Br)c2)cs1` reads inconclusive: 50.1 µM [inhibitor, partial curve]
Potency with `Cc1nc(Nc2cnc(/C=C/c3cc(C(=O)Nc4cccc(C(F)(F)F)c4)ccc3C)cn2)cc(N2CCNCC2)n1` reads inconclusive: 50.1 µM [inhibitor, partial curve]
